Data source: PubChem BioAssay AID1671195 (Yale University, 2021)

Assay: 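Genes whose knockdown alters LDL uptake in liver cancer cells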 (primary screen)
System: human Huh7 hepatoma cells
Knock-down reagent: siRNA pool against human genes, 18 nM
Time to read-out: about 2 to 2.5 days of knockdown, then 8 h LDL uptake
Conditions: DiI-labelled LDL at 30 µg/ml for 8 h, in lipoprotein-deficient serum medium
Measured: 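Fluorescent LDL signal imaged in cells, scaled to the plate median, robust z-score for each replicate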
Direction: robust z-score: higher = more LDL uptake after knockdown
Hit rule: 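a gene counts as active if at least two replicate z-scores exceed ±2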
The whole screen tested about 22,000 reagents; this is an unselected part. About 1,510 of all reagents (6.9%) were called active. 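Active includes knockdowns raising or lowering LDL uptake; positive z-scores mean more uptake, negative mean less.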 No sequences are given here.

With knock-down of LOC440711 (retired record), the screen gave robust z-score, replicate 1 = 0.9; robust z-score, replicate 2 = 0.989; robust z-score, replicate 3 = 1.21; inactive.
Against CHMP7 (charged multivesicular body protein 7), the entry reads robust z-score, replicate 1 = 0.00546; robust z-score, replicate 2 = -0.931; robust z-score, replicate 3 = -0.599; inactive.
For CDC45 (cell division cycle 45) the deposit lists robust z-score, replicate 1 = -0.305; robust z-score, replicate 2 = -0.0691; robust z-score, replicate 3 = 0.156; inactive.
With knock-down of IGLON5 (IgLON family member 5) the results were robust z-score, replicate 1 = -0.651; robust z-score, replicate 2 = -0.298; robust z-score, replicate 3 = -0.578; inactive.
Knock-down of GALNT2 (polypeptide N-acetylgalactosaminyltransferase 2) gave: robust z-score, replicate 1 = -1.96; robust z-score, replicate 2 = 0.806; robust z-score, replicate 3 = 0.569; inactive.
MORN3 (MORN repeat containing 3) gave robust z-score, replicate 1 = 0.163; robust z-score, replicate 2 = 0.586; robust z-score, replicate 3 = 0.464; inactive.
Silencing of PCDHA13 (protocadherin alpha 13) came out at: robust z-score, replicate 1 = -1.23; robust z-score, replicate 2 = -1.08; robust z-score, replicate 3 = -0.935; inactive.
After knock-down of ZBTB6 (zinc finger and BTB domain containing 6) the results were robust z-score, replicate 1 = -1.13; robust z-score, replicate 2 = -1.47; robust z-score, replicate 3 = -1.35; inactive.
Depletion of MECP2 (methyl-CpG binding protein 2) came out at: robust z-score, replicate 1 = -0.561; robust z-score, replicate 2 = 0.0979; robust z-score, replicate 3 = -0.681; inactive.
For CCDC183 (coiled-coil domain containing 183), the entry reads robust z-score, replicate 1 = -0.665; robust z-score, replicate 2 = 0.484; robust z-score, replicate 3 = 0.0145; inactive.
With knock-down of ME2 (malic enzyme 2), the screen gave robust z-score, replicate 1 = 1.51; robust z-score, replicate 2 = 2; robust z-score, replicate 3 = 1.34; inactive.
Knock-down of GALNT17 (polypeptide N-acetylgalactosaminyltransferase 17) came out at: robust z-score, replicate 1 = -0.266; robust z-score, replicate 2 = -0.0777; robust z-score, replicate 3 = -0.469; inactive.

Part of the list above, reformatted.
Gene | robust z-score, replicate 1 | robust z-score, replicate 2 | robust z-score, replicate 3 | call
CDC45 (cell division cycle 45) | -0.305 | -0.0691 | 0.156 | inactive
IGLON5 (IgLON family member 5) | -0.651 | -0.298 | -0.578 | inactive
